From publication PMC5317394
Results are given in words; binding and its absence hold for the method and conditions named. Binding seen in cells or lysates may run through a third protein. Binding calls can cover weak binding; strength is not graded here.

Protein sequences, listed by entry. Tags and fused reporters are not part of them. Lines headed by an entry give the natural chain unless they say otherwise; changes in a name come on top.
UniProt P72777: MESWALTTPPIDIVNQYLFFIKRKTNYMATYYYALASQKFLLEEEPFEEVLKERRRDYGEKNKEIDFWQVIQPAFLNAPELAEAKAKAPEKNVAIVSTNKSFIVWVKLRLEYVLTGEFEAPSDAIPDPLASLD

Experiments:
[1] = molecular target: 3x FLAG-tagged wild-type Ycf54 (Synechocystis sp. PCC 6803) (UniProt P72777); assay: pull-down; FLAG-tagged Ycf54 (bait) purified from dodecyl-β-maltoside solubilised membrane fractions of Synechocystis strains (Δycf54 background); eluates resolved by SDS-PAGE and blotted with anti-CHL27 (CycI) and anti-FLAG
[2] = molecular target: 3x FLAG-tagged Ycf54 A9G (Synechocystis sp. PCC 6803) (UniProt P72777); assay: as above

binding [1]: binds
binding [2]: binds
B1: CycI, catalytic subunit of the Mg-protoporphyrin IX monomethylester cyclase (protein, UniProt P72584 1-358)
chain: MVNTLEKPGFDEIRPGVKTPAKETILTPRFYTTDFDEMAKMDISPNEDELRAILEEFRVDYNRHHFVRNESFNKSWDHIDGEKRQLFVEFLERSCTAEFSGFLLYKELGRRLKNKNPLLAECFNLMSRDEARHAGFLNKAMSDFNLSLDLGFLTKSRKYTFFKPKFIFYATYLSEKIGYWRYITIYRHLEKNPNDCIYPIFEFFENWCQDENRHGDFFDAIMRAQPHTLNDWKAKLWCRFFLLSVFATMYLNDTQRADFYACLGLEARSYDKEVIEKTNETAGRVFPIILDVNNPEFYNRLETCVSNNEQLRAIDASGAPGVIKALRKLPIFASNGWQFIKLYLMKPIAVDQLAGAVR
